PubChem BioAssay AID504764 | Drosophila RNAi Screening Center, 2011
The screen tested about 22,000 reagents; below is a random part of those with a known target gene and a result. Of all reagents, 403 (1.9%) are marked active. 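Unnormalised raw counts per well; ratio z-scores behind the hit calls and whether each hit raises or lowers signal are not deposited.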 A number with no mark means an inactive call. A plus sign joins genes that one reagent is predicted to hit. Not given: the amount of reagent.

Test: 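Knock-downs that raise or lower a Notch target reporter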 (primary screen)
Cell system: Drosophila Kc167 cells
Reagent: long dsRNA against Drosophila genes
Timing: about 5 days (4 days dsRNA, then 24 h after transfection)
Treatment: transfection of constitutively active membrane-tethered Notch lacking the extracellular domain, read 24 h later
Detection: 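Light from a Notch-responsive E(spl)m3 luciferase reporter under active Notch, with control-promoter and no-Notch reporter wells to normalise; raw counts from paired wells a and b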
Direction: induced reporter light, run 1, well a and induced reporter light, run 1, well b: higher = more light from the Notch target reporter with active Notch; control promoter light, run 1, well a and control promoter light, run 1, well b: higher = more light from the viral control promoter (cell number, transfection, viability); uninduced reporter light, run 1, well a: higher = more light from the Notch target reporter without active Notch
Call rule: 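Wells with low control signal or poorly matching duplicates excluded; duplicates averaged; per source plate, z beyond ±2 for induced/control log2 ratio or beyond ±1.8 for induced/uninduced marks a hit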
Calls: active = modifier hit (raised or lowered Notch signal); inactive = not a hit

For CG8677 + CG31626 [DRSC01838], what does the deposit list?
induced reporter light, run 1, well a: 1.09e5; induced reporter light, run 1, well b: 1.14e5; control promoter light, run 1, well a: 87705; control promoter light, run 1, well b: 1.17e5; uninduced reporter light, run 1, well a: 9375

With dco [DRSC16929], what does the deposit list?
induced reporter light, run 1, well a: 49820; induced reporter light, run 1, well b: 56725; control promoter light, run 1, well a: 69140; control promoter light, run 1, well b: 62905; uninduced reporter light, run 1, well a: 4575

With Osi14 [DRSC12368], what does the deposit list?
induced reporter light, run 1, well a: 98780; induced reporter light, run 1, well b: 1.38e5; control promoter light, run 1, well a: 1.83e5; control promoter light, run 1, well b: 1.32e5; uninduced reporter light, run 1, well a: 7505

For CG10470 [DRSC02061], how do the results read?
induced reporter light, run 1, well a: 73965; induced reporter light, run 1, well b: 39495; control promoter light, run 1, well a: 45350; control promoter light, run 1, well b: 48280; uninduced reporter light, run 1, well a: 3105

What did the screen give for CG14820 [DRSC10191]?
induced reporter light, run 1, well a: 2.08e5; induced reporter light, run 1, well b: 1.39e5; control promoter light, run 1, well a: 1.68e5; control promoter light, run 1, well b: 1.69e5; uninduced reporter light, run 1, well a: 12140

For CG13295 [DRSC09969], what does the deposit list?
induced reporter light, run 1, well a: 2.26e5; induced reporter light, run 1, well b: 2.11e5; control promoter light, run 1, well a: 2.46e5; control promoter light, run 1, well b: 2.78e5; uninduced reporter light, run 1, well a: 7840

What did the screen give for Nepl13 [DRSC15632]?
induced reporter light, run 1, well a: 1.77e5; induced reporter light, run 1, well b: 1.60e5; control promoter light, run 1, well a: 2.17e5; control promoter light, run 1, well b: 1.82e5; uninduced reporter light, run 1, well a: 14515

With cta [DRSC03769], what does the deposit list?
induced reporter light, run 1, well a: 2.11e5; induced reporter light, run 1, well b: 2.21e5; control promoter light, run 1, well a: 1.82e5; control promoter light, run 1, well b: 1.93e5; uninduced reporter light, run 1, well a: 13620

How did the screen score CG13526 [DRSC04168]?
induced reporter light, run 1, well a: 1.76e5; induced reporter light, run 1, well b: 1.39e5; control promoter light, run 1, well a: 1.60e5; control promoter light, run 1, well b: 1.53e5; uninduced reporter light, run 1, well a: 11700

For CG5902 [DRSC15912], what was measured?
induced reporter light, run 1, well a: 1.61e5; induced reporter light, run 1, well b: 1.63e5; control promoter light, run 1, well a: 1.90e5; control promoter light, run 1, well b: 2.13e5; uninduced reporter light, run 1, well a: 14485

For Chd3 [DRSC11114], how do the results read?
induced reporter light, run 1, well a: 1.13e5; induced reporter light, run 1, well b: 94280; control promoter light, run 1, well a: 1.22e5; control promoter light, run 1, well b: 1.13e5; uninduced reporter light, run 1, well a: 8685

For CG5592 [DRSC10524], what was measured?
induced reporter light, run 1, well a: 2.87e5; induced reporter light, run 1, well b: 2.30e5; control promoter light, run 1, well a: 4.14e5; control promoter light, run 1, well b: 4.12e5; uninduced reporter light, run 1, well a: 12035

Part of the list above, set out differently:
| Gene | dsRNA | induced reporter light, run 1, well a | induced reporter light, run 1, well b | control promoter light, run 1, well a | control promoter light, run 1, well b | uninduced reporter light, run 1, well a |
| --- | --- | --- | --- | --- | --- | --- |
| dco | DRSC16929 | 49820 | 56725 | 69140 | 62905 | 4575 |
| Osi14 | DRSC12368 | 98780 | 1.38e5 | 1.83e5 | 1.32e5 | 7505 |
